The values below come from paper PMC4072698.

The exact form of at least one protein or probe is not confirmed.

For orientation: Kd means the constant that tells how readily two partners part at equilibrium.

Holding throughout (assay): EMSA
(Mobility shift assays separate free from complexed probe on a gel.)

Series [1] deals with Survivin/DasraA. The settings on record: EMSA: 20 mM Hepes pH 7.8, 100 mM NaCl, 2 mM MgCl2, 4% glycerol, 1 mM beta-mercaptoethanol, 0.1 mg/ml yeast tRNA, 1 nM Cy5 transcript, room temperature, 30 min; recombinant protein; label: Cy5-CTP (1:20) internal; probe letters rebuilt from the primers and the genome; part of a longer molecule.
The subject of series [2] is AurB/Incenp. To be noted: EMSA: 20 mM Hepes pH 7.8, 100 mM NaCl, 2 mM MgCl2, 4% glycerol, 1 mM beta-mercaptoethanol, 0.1 mg/ml yeast tRNA, 1 nM Cy5 transcript, room temperature, 30 min; recombinant protein; label: Cy5-CTP (1:20) internal; probe letters rebuilt from the primers and the genome; part of a longer molecule.
For series [3], the system named is CPC (AurB/Incenp/Survivin/DasraA). The settings on record: EMSA: 20 mM Hepes pH 7.8, 100 mM NaCl, 2 mM MgCl2, 4% glycerol, 1 mM beta-mercaptoethanol, 0.1 mg/ml yeast tRNA, 1 nM Cy5 transcript, room temperature, 30 min; recombinant protein; label: Cy5-CTP (1:20) internal; probe letters rebuilt from the primers and the genome; part of a longer molecule.
Series [4] has as its target GFP-3xHA-AurB (UniProt Q6DE08). The settings on record: EMSA: 20 mM Hepes pH 7.8, 100 mM NaCl, 2 mM MgCl2, 4% glycerol, 1 mM beta-mercaptoethanol, 0.1 mg/ml yeast tRNA, 1 nM Cy5 transcript, room temperature, 30 min; recombinant protein; residues 1-361; label: Cy5-CTP (1:20) internal; probe letters rebuilt from the primers and the genome; part of a longer molecule.
In series [5] the target is Survivin (UniProt Q4R1J6). The settings on record: text: Survivin does not bind RNA on its own; EMSA: 20 mM Hepes pH 7.8, 100 mM NaCl, 2 mM MgCl2, 4% glycerol, 1 mM beta-mercaptoethanol, 0.1 mg/ml yeast tRNA, 1 nM Cy5 transcript, room temperature, 30 min; recombinant protein; label: Cy5-CTP (1:20) internal; probe letters rebuilt from the primers and the genome; part of a longer molecule.

Regarding “CAAAUUGAUAAAGAGACAGAUGCAGAAAAAGCAUUUAAGGAAGGGAAAGAAAAAAGUGAAAAACGAUCUGCGCUAAAGGAGAGGGACUUAGAAAAGAAAAGCACUGAUAAAGAGAAGAAAUGGGGCUGAGCUGUGGGCUCAGGGAGAGGGGGACGAGGGUGCCAGAAAAUACAGACAAAUCUAAAUCACACCUGCAAUCCCCAGAUAAGCUUCAAAAGGAAAGCGAUAAAAUUAGGACUUCAGCUGUCGGCAAAAAAAACGAUGACAAAUCCAAAGACAGAAAAGACCGGAAUGAAAAGGACAAGCAUCUUGGAGAGCA [Xl. 19006 mutant RNA]”, the Kd came out at 67 nM in series [1], 59 nM in series [2], 38 nM in series [3] and 118 nM in series [4].

As for “CAAAUUGAUAAAGAGACAGAUGCAGAAAAAGCAUUUAAGGAAGGGAAAGAAAAAAGUGAAAAACGAUCUGCGCUAAAGGAGAGGGACUUAGAAAAGAAAAGCACUGAUAAAGAGAAGAAGGCAAAAUCAGAUCACAAAUCUGAAAGAGAAAAAGUAGAAAUGCCAGAAAAUACAGACAAAUCUAAAUCACACCUGCAAUCCCCAGAUAAGCUUCAAAAGGAAAGCGAUAAAAUUAGGACUUCAGCUGUCGGCAAAAAAAACGAUGACAAAUCCAAAGACAGAAAAGACCGGAAUGAAAAGGACAAGCAUCUUGGAGAGCA [Xl. 19006 WT RNA]”, the Kd came out at 73 nM in series [1]; 1110 nM in series [5]; 70 nM in series [2]; 53 nM in series [3]; 160 nM in series [4].
